Screening data, single-dose tests

By UniProt entry, the sequences of proteins in these tests, tags left out. Residues count along the entry.
UniProt I6X8D2, whole entry: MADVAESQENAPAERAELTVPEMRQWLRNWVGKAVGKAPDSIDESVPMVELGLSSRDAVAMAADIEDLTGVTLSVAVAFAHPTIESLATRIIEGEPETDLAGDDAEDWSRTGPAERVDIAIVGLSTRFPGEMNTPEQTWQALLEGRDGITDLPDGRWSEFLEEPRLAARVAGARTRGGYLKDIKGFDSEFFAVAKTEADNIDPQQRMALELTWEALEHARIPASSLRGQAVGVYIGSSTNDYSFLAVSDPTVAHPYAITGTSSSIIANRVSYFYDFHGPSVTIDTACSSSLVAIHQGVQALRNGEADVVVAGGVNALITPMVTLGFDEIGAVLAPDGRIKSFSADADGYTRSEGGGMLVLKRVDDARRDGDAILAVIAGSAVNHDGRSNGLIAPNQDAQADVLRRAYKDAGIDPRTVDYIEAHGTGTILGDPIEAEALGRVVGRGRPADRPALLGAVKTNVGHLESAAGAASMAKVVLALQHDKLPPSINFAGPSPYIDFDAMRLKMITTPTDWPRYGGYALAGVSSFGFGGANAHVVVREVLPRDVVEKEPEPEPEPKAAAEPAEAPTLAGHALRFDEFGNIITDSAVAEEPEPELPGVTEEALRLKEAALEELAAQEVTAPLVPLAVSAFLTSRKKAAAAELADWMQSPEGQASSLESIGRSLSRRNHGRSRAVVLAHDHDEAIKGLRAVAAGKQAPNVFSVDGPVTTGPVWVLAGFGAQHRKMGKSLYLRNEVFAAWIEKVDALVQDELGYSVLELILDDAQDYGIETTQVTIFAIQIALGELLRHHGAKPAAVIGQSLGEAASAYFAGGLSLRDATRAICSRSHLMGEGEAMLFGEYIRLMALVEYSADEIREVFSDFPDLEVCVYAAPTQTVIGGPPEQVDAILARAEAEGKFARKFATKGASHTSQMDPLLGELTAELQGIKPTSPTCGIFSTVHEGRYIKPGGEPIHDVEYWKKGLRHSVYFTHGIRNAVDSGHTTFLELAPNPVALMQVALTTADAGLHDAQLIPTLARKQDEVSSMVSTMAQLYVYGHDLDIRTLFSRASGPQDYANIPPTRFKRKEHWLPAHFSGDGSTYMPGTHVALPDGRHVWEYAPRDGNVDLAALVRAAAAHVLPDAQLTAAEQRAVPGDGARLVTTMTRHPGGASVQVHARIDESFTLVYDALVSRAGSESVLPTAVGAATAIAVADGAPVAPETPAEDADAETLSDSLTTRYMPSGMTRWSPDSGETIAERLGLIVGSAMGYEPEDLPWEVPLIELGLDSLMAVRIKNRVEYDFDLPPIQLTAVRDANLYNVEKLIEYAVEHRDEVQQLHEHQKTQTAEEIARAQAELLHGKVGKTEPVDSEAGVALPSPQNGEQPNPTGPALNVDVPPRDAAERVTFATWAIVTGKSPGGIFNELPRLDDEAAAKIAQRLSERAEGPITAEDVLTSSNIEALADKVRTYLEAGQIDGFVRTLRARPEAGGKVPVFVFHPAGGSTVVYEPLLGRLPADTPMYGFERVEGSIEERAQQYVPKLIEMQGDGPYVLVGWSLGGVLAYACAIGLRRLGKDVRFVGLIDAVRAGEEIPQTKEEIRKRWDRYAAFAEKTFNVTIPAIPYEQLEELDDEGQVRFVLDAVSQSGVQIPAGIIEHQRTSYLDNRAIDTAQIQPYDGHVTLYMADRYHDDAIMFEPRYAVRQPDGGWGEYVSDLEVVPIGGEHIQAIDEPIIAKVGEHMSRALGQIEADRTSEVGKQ
UniProt Q8IDJ8, 1-583: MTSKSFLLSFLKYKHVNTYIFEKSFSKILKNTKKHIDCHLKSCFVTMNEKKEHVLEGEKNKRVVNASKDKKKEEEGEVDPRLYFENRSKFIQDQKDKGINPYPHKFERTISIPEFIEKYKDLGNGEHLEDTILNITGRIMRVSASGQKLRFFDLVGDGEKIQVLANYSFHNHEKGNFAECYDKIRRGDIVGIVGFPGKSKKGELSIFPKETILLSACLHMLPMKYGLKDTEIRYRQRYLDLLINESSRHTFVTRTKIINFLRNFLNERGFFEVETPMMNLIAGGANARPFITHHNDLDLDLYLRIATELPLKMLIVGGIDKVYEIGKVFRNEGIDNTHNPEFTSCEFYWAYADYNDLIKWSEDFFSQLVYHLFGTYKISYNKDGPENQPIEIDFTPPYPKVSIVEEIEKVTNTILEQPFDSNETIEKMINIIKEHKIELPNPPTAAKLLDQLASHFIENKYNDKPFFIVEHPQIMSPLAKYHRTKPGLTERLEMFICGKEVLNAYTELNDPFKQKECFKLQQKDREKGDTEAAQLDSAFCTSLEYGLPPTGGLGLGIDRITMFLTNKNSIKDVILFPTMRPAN
UniProt A4I591, 1-473: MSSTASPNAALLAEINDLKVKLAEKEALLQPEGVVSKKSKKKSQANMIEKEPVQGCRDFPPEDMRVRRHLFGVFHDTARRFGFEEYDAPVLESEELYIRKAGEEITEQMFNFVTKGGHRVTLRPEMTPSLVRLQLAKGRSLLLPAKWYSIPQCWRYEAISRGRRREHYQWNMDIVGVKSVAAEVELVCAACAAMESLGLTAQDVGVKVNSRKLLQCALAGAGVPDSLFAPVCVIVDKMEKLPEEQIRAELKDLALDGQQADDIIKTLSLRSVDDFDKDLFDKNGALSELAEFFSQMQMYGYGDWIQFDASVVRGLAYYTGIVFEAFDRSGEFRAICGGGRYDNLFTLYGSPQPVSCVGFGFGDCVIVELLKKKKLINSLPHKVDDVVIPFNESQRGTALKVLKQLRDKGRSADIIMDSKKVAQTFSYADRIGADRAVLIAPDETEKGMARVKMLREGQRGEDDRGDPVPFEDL
UniProt P9WFT3, whole entry: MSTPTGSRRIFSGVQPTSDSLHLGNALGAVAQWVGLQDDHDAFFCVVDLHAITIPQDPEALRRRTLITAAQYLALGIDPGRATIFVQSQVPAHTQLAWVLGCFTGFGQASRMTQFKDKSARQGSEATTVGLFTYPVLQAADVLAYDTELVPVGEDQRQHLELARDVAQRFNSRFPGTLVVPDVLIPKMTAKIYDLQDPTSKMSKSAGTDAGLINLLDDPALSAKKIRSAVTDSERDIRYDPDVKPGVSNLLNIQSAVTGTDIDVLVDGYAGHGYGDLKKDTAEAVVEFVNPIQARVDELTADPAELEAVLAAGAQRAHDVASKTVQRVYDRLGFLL

Measurements from “University of Dundee, Small-Polar-MMV Screening Library” (2021), ChEMBL document CHEMBL3988442.

Each number is a percent effect as filed. The controls that fix the scale are not given in the record; negative values are as filed. This is an unselected part of the compounds tested. A dash means the value is not listed here; it may have been measured.

Pks13 thioesterase: 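Polyketide synthase Pks13, Mycobacterium tuberculosis (UniProt I6X8D2). Enzyme assay of the thioesterase domain of polyketide synthase 13; the read-out is not stated. Concentration: 30 µM. Higher reads as stronger inhibition (inferred from which compounds were picked for retests). Of about 67,000 compounds tested this way, about 300 (0.46%) reached 50% or more in at least one test.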
PfKRS1: 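Enzyme assay of the cytosolic lysyl-tRNA synthetase in 384-well plates, read by luminescence. Target: Lysine-tRNA ligase, Plasmodium falciparum 3D7 (UniProt Q8IDJ8). Tested at 30 µM. Higher reads as stronger inhibition, judged from the few compounds that gave an IC50. Of about 69,000 compounds tested this way, about 49 (0.071%) reached 50% or more in at least one test.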
LiHisRS: 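Histidine-tRNA ligase, Leishmania infantum (UniProt A4I591). Enzyme assay of histidyl-tRNA synthetase; the read-out is not stated. Tested at 30 µM. Higher reads as stronger inhibition (inferred: compounds with an IC50 in retests scored well above the rest). The assay is labelled LdHisRS but filed under L. infantum. Of about 69,000 compounds tested this way, about 410 (0.6%) reached 50% or more in at least one test.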
MtTrpRS: 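Enzyme assay of tryptophanyl-tRNA synthetase; the read-out is not stated. Target: Tryptophan-tRNA ligase, Mycobacterium tuberculosis (UniProt P9WFT3). Compounds at 10 µM. Direction is not recorded; retested compounds ran higher, which suggests that high means inhibition. Size under these conditions: about 65,000 compounds, about 64 of them at 50% or above in at least one test.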

SMILES | Pks13 thioesterase | PfKRS1 | LiHisRS | MtTrpRS
CC(C)c1ncncc1C(=O)NCCN1CCCCCC1 | -19.65% | 10.3% | 15.93% | 2.294%
CC(C)CCn1cc(C(=O)NC2CCS(=O)(=O)C2)c2ccccc2c1=O (stereo unspecified) | -4.025% | 3.89% | 16.48% | 1.23%
c1ccc(Oc2ccc(OC34CCCN(CC3)C4)cc2)cc1 (stereo unspecified) | 12.09% | 3.092% | 61.22% | 1.426%
O=C1[C@@H]2CN(c3ncccc3Cl)C[C@]2(C(=O)O)CN1CC1CC1 | -3.185% | 6.183% | 3.279% | -1.127%
Cc1nn(C)c2nc(N(Cc3nccs3)C3CC3)sc12 | -39.56% | 0.979% | 17.78% | -0.07262%
Cc1ccc2cccc(C(=O)NCCOCC3CC3)c2n1 | -14.51% | 3.516% | 8.333% | 1.941%
O=C(NCc1ccco1)[C@@H]1CC[C@@H]2[C@@H](CCN2CC2CC2)O1 | -36.72% | 4.918% | 23.29% | -0.08032%
O=C(OCCNc1ncccn1)c1ccc(Cl)s1 | -10.44% | 8.944% | 16.13% | -1.347%
COC(=O)c1ccc(CN[C@@H]2COC[C@H]2Cc2cc(C)no2)cc1 | 3.715% | 2.213% | 12% | -
Cc1noc(C)c1CNCC1CCCN1c1cccnn1 (stereo unspecified) | -13.63% | -0.04728% | 0% | -0.07819%
Cc1noc(C)c1CN1C[C@@H]2C[C@@H](C)O[C@@H]2C1 | 0.8002% | 4.672% | -43.4% | -
Cc1nc(CN(C)CC2CCCN2c2cccnn2)oc1C (stereo unspecified) | -15.23% | 3.959% | 3.306% | 4.312%
c1coc(-c2nc(CNC3CCCNC3)no2)c1 (stereo unspecified) | 2.031% | 5.987% | 30.61% | 2.203%
Cn1cc(N2C[C@@H]3CN(CC4CCOCC4)C[C@@H]3C2=O)cn1 | 2.986% | 0.08% | 8% | -4.941%
CCN(CC)c1ccc(C(=O)N2CCCC(n3cncn3)C2)cn1 (stereo unspecified) | -5.6% | -1.051% | -0.9259% | -1.872%
O=C(NCCCO)Nc1cnc2cc(Cl)ccc2c1O | 22.33% | 4.669% | 13.54% | -
CC(C)(C)CC(=O)N1C[C@H]2CCN[C@H]2C1 | -5.829% | 4.475% | 13.46% | -
Cc1noc(C)c1CN1Cc2nccn2CC(CN2CCOCC2)C1 (stereo unspecified) | -9.242% | 4.069% | 2.752% | 1.91%
CCNC(=O)[C@@H]1CCCN1[C@@H](C(=O)NC)c1ccccc1OC | 4.198% | 1.667% | 16.67% | 1.022%
COc1c(C2CCCN2CC(=O)Nc2cc(C)on2)c(C)nn1C (stereo unspecified) | -2.402% | -0.2636% | 1.818% | 7.025%
CC(C)CC(C)NCc1cccnc1N1CCOCC1 (stereo unspecified) | - | 6.513% | 11.69% | -0.5452%
CC(=O)c1cc(CN2C[C@@H](CN3CCC(O)CC3)[C@@H](CO)C2)n(C)c1 | -20.28% | 1.59% | 10.83% | 4.541%
COc1ccc(C)cc1NS(=O)(=O)c1ccc(CCNC(C)=O)s1 | -31.84% | 4.685% | 3.797% | -4.6%
FC(F)(F)c1ccc(-c2c[nH]c([C@@H]3COCCN3)n2)cc1 | -17.83% | 5.796% | 8.108% | -0.5339%
c1ccc(CN(Cc2ncc[nH]2)Cc2nccs2)cc1 | 15.7% | 2.652% | 10.39% | 2.967%
CCS(=O)(=O)CC(=O)NC(c1ccccc1)C1CCCC1 (stereo unspecified) | -7.185% | -0.9752% | -3.191% | 7.951%
CCn1nc(C)c(S(=O)(=O)Nc2ccccc2C(=O)OC)c1C | -1.254% | -4.361% | 25.71% | 5.357%
CNc1nc2c(s1)C(=O)CN(C(=O)NCCc1ccccc1)C2 | 20.34% | 1.967% | 20% | -
CCN1CCN(C(=O)c2c[nH]c(C(C)C)n2)c2ccccc21 | -35.94% | 1.281% | 15.52% | -2.319%
CCC(CNC(=O)c1nc(=O)[nH][nH]1)Oc1ccccc1C(F)(F)F (stereo unspecified) | -5.09% | 2.578% | 10.96% | 5.216%
COC(=O)N1CCC(NC(=O)CC(C)CCc2ccccc2)CC1 (stereo unspecified) | -21.51% | 1.856% | 17.14% | -0.8396%
CC(C)CN1CCC2(COCc3cnc(-c4ccccc4)nc32)C1 (stereo unspecified) | 0.2884% | 1.253% | 8.182% | -
Cc1ccccc1N1CCN(C(=O)c2ccc[nH]2)C(C)C1 (stereo unspecified) | -1.337% | 7.349% | 22.86% | -4.261%
CN(C)C(=O)c1ccn(COc2ccccc2Cl)n1 | -12.6% | 0.8521% | 20.35% | -3.482%
COc1c(C)cnc(CN2CCC(N(C)C(=O)C3CC3)CC2)c1C | -7.02% | 4.703% | 21.15% | -0.4351%
Cc1n[nH]c(C2CN(C(=O)CCCn3cccn3)CCO2)n1 (stereo unspecified) | -5.974% | 5.048% | 10.62% | 1.864%
CCn1cnnc1CNC(=O)N1CCCN(C(C)=O)CC1 | -21.06% | 1.631% | 18.67% | -4.144%
c1ccc(CN2Cc3nccn3CC(Cn3cccn3)C2)nc1 (stereo unspecified) | -17.43% | 5.939% | 9.91% | -
c1cnc(N2CCC(OCC3CCCCO3)CC2)nc1 (stereo unspecified) | 0.9767% | 7.342% | -15.93% | 3.946%
CC(CNC(=O)N1CCN(Cc2ccon2)CC1)Cc1cccs1 (stereo unspecified) | -16.2% | -1.375% | 3.03% | -3.835%

The last 5 entries again:

SMILES,Pks13 thioesterase,PfKRS1,LiHisRS,MtTrpRS
Cc1n[nH]c(C2CN(C(=O)CCCn3cccn3)CCO2)n1 (stereo unspecified),-5.974%,5.048%,10.62%,1.864%
CCn1cnnc1CNC(=O)N1CCCN(C(C)=O)CC1,-21.06%,1.631%,18.67%,-4.144%
c1ccc(CN2Cc3nccn3CC(Cn3cccn3)C2)nc1 (stereo unspecified),-17.43%,5.939%,9.91%,-
c1cnc(N2CCC(OCC3CCCCO3)CC2)nc1 (stereo unspecified),0.9767%,7.342%,-15.93%,3.946%
CC(CNC(=O)N1CCN(Cc2ccon2)CC1)Cc1cccs1 (stereo unspecified),-16.2%,-1.375%,3.03%,-3.835%